The data set is described as follows: MTX-captisol solubility: rate of precipitation of MTX at pH 5.0 in presence and absence of captisol. In kind it is physicochemical. The conditions noted are these: pH 5.0, MTX added 0.91 mg/ml. As for the experimental part: Solubility studies were performed to determine whether Captisol could prevent the precipitation of MTX over a time period greater than transit time of MTX through the kidney (i.e., less than 2 minutes). Each solution was acidified with HCl, centrifuged and aliquots of the supernatant removed as a function of time, and the concentration of MTX in solution was measured spectrophometrically.

Consider `CN(Cc1cnc2nc(N)nc(N)c2n1)c1ccc(C(=O)N[C@@H](CCC(=O)O)C(=O)O)cc1` [MTX, N-[4-[[(2,4-diamino-6pteridinyl)methyl]methylamino]benzoyl]-L-glutamicacid], for which the “OD at 302-304 nm” value amounted to 0.296 (5 min after adding acid); 0.22 (10 min after adding acid); 0.274 (15 min after adding acid); 0.328 (20 min after adding acid); 0.325 (30 min after adding acid); 0.284 (40 min after adding acid). For the same compound, the “OD at 302-304 nm” value (50 min after adding acid) is on record as 0.293 and the “OD at 302-304 nm” value (60 min after adding acid) amounted to 0.333.

(Values after US8574551B2, “Compositions useful for reducing nephrotoxicity and methods of use thereof” (Verrow Pharmaceuticals, Inc., priority 2005, dated 2013).)
